In article PMC12431657, “Discovery and mechanistic insights of dibenzoylmethane as a broad spectrum inhibitor of coronavirus” (PLOS Pathogens, 2025):
Structures can show the parent of a compound that is named as a salt. Where two headings read alike, the source gives them in different places. Screen size: about 3,300 compounds; about 95 (3%) showed an effect of 50% or more. The list shows a part of the results.

System: HCoV-229E
Set-up: species or system Huh-7; HTS, protection from HCoV-229E induced cell death, luminescent cell viability (CellCounting-Lite 2.0), inhibition rate
Conditions: 24 h post infection, 1 h compound pre-incubation, 10 µM, inhibitor

SMILES	229E Inhibition rate [%]	229E Inhibition rate (229E Inhibition rate, 24 h) [%]
CC(=O)Cc1cc(=O)c2c(C)cc(O)c([C@@H]3O[C@H](CO)[C@@H](O)[C@H](O)[C@H]3O)c2o1 [Aloesin]	45.8	–
COc1cc2c[n+](C)c3c4cc5c(cc4ccc3c2cc1OC)OCO5 [Nitidine (chloride)]	3.7	–
CC1(C)CC[C@]2(C(=O)O)[C@H](O)C[C@]3(C)C(=CC[C@@H]4[C@@]5(C)C[C@H](O)[C@H](O[C@@H]6O[C@H](CO)[C@@H](O)[C@H](O)[C@H]6O)C(CO)(CO)[C@@H]5CC[C@]43C)[C@@H]2C1 [3-O-Beta-D-Glucopyranosylplatycodigenin]	18.3	–
O=C(CO)[C@@H](O)[C@H](O)[C@H](O)CO [D-Fructose]	–	15.6
O=C(/C=C/c1ccc(O)c(O)c1/C=C/c1ccc(O)c(O)c1)O[C@H](Cc1ccc(O)c(O)c1)C(=O)O [Salvianolic acid A]	17.8	–
CC(C)=CCC1C(=O)C(C(=O)CC(C)C)=C(O)C(O)(CC=C(C)C)C1=O (stereo not drawn) [Humulone]	9.3	–
C[C@]1(O)C[C@@H](O)[C@]2(O)C=CO[C@@H](O[C@H]3O[C@H](CO)[C@@H](O)[C@H](O)[C@H]3O)[C@@H]21 [Harpagide]	6.1	–
CC(C)=CC[C@@H](OC(=O)C=C(C)C)C1=CC(=O)c2c(O)ccc(O)c2C1=O [β,β-Dimethylacrylshikonin]	50.2	–
C[C@H]1O[C@@H](O[C@H]2CC[C@]3(C)[C@H]4C=C[C@]56OC[C@@]7(CCC(C)(C)C[C@H]75)[C@@H](O)C[C@@]6(C)[C@]4(C)CC[C@H]3C2(C)C)[C@H](O)[C@@H](O[C@@H]2O[C@H](CO)[C@@H](O)[C@H](O)[C@H]2O)[C@H]1O [Saikosaponin E]	11.2	–
C[C@@H]1O[C@@H](O[C@H]2[C@H](O)[C@@H](O)[C@H](O[C@H]3CC[C@]4(C)[C@H]5CC=C6[C@@H]7CC(C)(C)CC[C@]7(CO)[C@@H](O)C[C@@]6(C)[C@]5(C)CC[C@H]4C3(C)C)O[C@@H]2CO[C@@H]2O[C@H](CO)[C@@H](O)[C@H](O)[C@H]2O)[C@H](O)[C@H](O)[C@H]1O [Saikosaponin F]	31.2	–
O=c1[nH]c2ccccc2o1 [2-Benzoxazolinone]	9.3	–
CC(=O)NCCCC(=O)O [4-Acetamidobutanoic acid]	16.3	–
CC(C)=CCC[C@](C)(O[C@@H]1O[C@H](CO[C@@H]2O[C@H](CO)[C@@H](O)[C@H](O)[C@H]2O)[C@@H](O)[C@H](O)[C@H]1O)[C@H]1CC[C@]2(C)[C@@H]1[C@H](O)C[C@@H]1[C@@]3(C)CC[C@H](O[C@@H]4O[C@H](CO)[C@@H](O)[C@H](O)[C@H]4O)C(C)(C)[C@@H]3CC[C@]12C [Gypenoside XVII]	9.4	–
Oc1cccc(O)c1O [Pyrogallol]	33	–
COC1=CC(=O)C[C@@H](C)[C@]12Oc1c(Cl)c(OC)cc(OC)c1C2=O [Griseofulvin]	18.8	–
CC(C)=CCOc1ccc2ccc(=O)oc2c1 [7-Prenyloxycoumarin]	10.2	–
O=C(/C=C/C=C/c1ccccc1)CCc1ccccc1 [Alnustone]	13.5	–
COc1ccc(-c2coc3cc(O)cc(O)c3c2=O)cc1 [Biochanin A]	0	–
O=C(O)C(=O)O [Oxalic acid dihydrate]	–	19.5
C[C@H](CCC(=O)NCC(=O)O)[C@H]1CC[C@H]2[C@@H]3[C@H](O)C[C@@H]4C[C@H](O)CC[C@]4(C)[C@H]3CC[C@]12C [Glycochenodeoxycholic acid (sodium salt)]	–	11.2
C[C@@H]1O[C@@H](O[C@H]2[C@H](O[C@H]3CC[C@@]4(C)[C@@H](CC[C@]5(C)[C@@H]4CC=C4[C@@H]6CC(C)(C)CC[C@]6(C(=O)O[C@@H]6O[C@H](CO[C@@H]7O[C@H](CO)[C@@H](O)[C@H](O)[C@H]7O)[C@@H](O)[C@H](O)[C@H]6O)CC[C@]45C)[C@]3(C)CO)OC[C@H](O)[C@@H]2O)[C@H](O)[C@H](O)[C@H]1O [Dipsacoside B]	11.1	–
O=c1cc(-c2ccc(O)cc2)oc2cc(O[C@@H]3O[C@H](CO)[C@@H](O)[C@H](O)[C@H]3O)cc(O)c12 [Apigenin 7-glucoside]	31.1	–
COc1ccc2c(c1OC)O[C@H]1c3ccc(O)cc3OC[C@@H]21 [Methylnissolin]	38.6	–
Nc1ccc(-c2ccccc2)cn1 [2-Amino-5-phenylpyridine]	7.2	–
O=c1ccn([C@H]2C[C@H](O)[C@@H](CO)O2)c(=O)[nH]1 [2'-Deoxyuridine]	11	–
O=C(O)[C@H]1CCCCN1 [D-Pipecolinic acid]	9.3	–
Nc1nc(=O)c2c([nH]1)NC[C@H](CNc1ccc(C(=O)N[C@@H](CCC(=O)O)C(=O)O)cc1)N2C=O [Levoleucovorin (Calcium)]	17.5	–

Structures above containing an aryl methoxy group:
SMILES	229E Inhibition rate [%]	229E Inhibition rate (229E Inhibition rate, 24 h) [%]
COc1cc2c[n+](C)c3c4cc5c(cc4ccc3c2cc1OC)OCO5 [Nitidine (chloride)]	3.7	–
COC1=CC(=O)C[C@@H](C)[C@]12Oc1c(Cl)c(OC)cc(OC)c1C2=O [Griseofulvin]	18.8	–
COc1ccc(-c2coc3cc(O)cc(O)c3c2=O)cc1 [Biochanin A]	0	–
COc1ccc2c(c1OC)O[C@H]1c3ccc(O)cc3OC[C@@H]21 [Methylnissolin]	38.6	–
